Source: the supplement of paper PMC12578635
Some of the results follow. Rule as the data show it: active = 150% or more and inactive = the rest. Repeats are few or missing, and single values can be far off.

Each compound was assayed on Staphylococcus aureus JE2-lux inside RAW 264.7 macrophages (assay: intracellular bacterial bioluminescence relative to DMSO vehicle; higher = higher intracellular bacterial metabolic activity). Details: 10 µM; treatment time 4 h; gentamicin 50 µg/ml.

Intracellular bacterial bioluminescence, inactive:
O=C(CCn1c(-c2ccncc2)cc2cccnc21)Nc1ccccc1F 71.2%
COc1cc(OC)cc(-c2noc(Cn3c(=O)[nH]c4cc5c(cc4c3=O)OCO5)n2)c1 76.7%
O=c1nc(SCc2ccc([N+](=O)[O-])cc2)c2c(n1Cc1cccnc1)CCC2 5.11%
CSc1nnc(C)c(=O)n1COC(=O)c1ccc2ccccc2c1 65.5%
CCCc1cc(CNC(=O)C(C)N2C(=O)NC(C)(C)C2=O)on1 (configuration not stated) 115%
Cc1cc(C(=O)CSc2nnc3ccccn23)c(C)n1Cc1ccccc1 42.6%
O=C(CSc1nnc2c(n1)[nH]c1ccc(Cl)cc12)NCc1ccc2c(c1)OCO2 93.2%
Cc1noc(C)c1CSc1ncnc2sc3c(c12)CCCC3 107%
Cc1cnc(C(=O)N2CCC(c3nc4c(c(N5CCCC5)n3)CCC4)CC2)cn1 121%
CC(=O)Nc1ccc(Nc2c3c(nc4ncnn24)CCC3)cc1 120%
Cc1cc(C)c2c(n1)sc1c(=O)n(-c3ccc(C(=O)Nc4ccc(C)c(F)c4)cc3)cnc12 97.5%
Cc1c(-c2ccccc2)n[nH]c1C(=O)NC(c1ccccc1)c1cccnc1 (configuration not stated) 16.2%
Cc1ccc(-c2noc(-c3cccn4c(=O)c5ccccc5nc34)n2)cc1 66.5%
Cc1c(NC(=S)NCCc2ccccc2)c(=O)n(-c2ccccc2)n1C 103%
CNC(=S)NCCc1cc2c(OC)ccc(OC)c2[nH]c1=O 115%
C=CCn1c(SCC(=O)Nc2nccs2)nc2sc(C)c(C)c2c1=O 116%
Clc1ccc2nc(Nc3nc4cc5c(cc4s3)OCO5)sc2c1 98.5%
CCCCCn1c(=S)[nH]c2cc(C(=O)NCc3ccc4c(c3)OCO4)ccc2c1=O 113%
O=c1c2sc3ccccc3c2[nH]c(=S)n1CCc1c[nH]c2ccccc12 94.7%
CSc1ncc(C(=O)Nc2ccc(C)c(C)c2)c(=O)n1C 119%
CCOC(=O)CNC(=O)CS(=O)(=O)c1cn(CC(=O)N2CCCCCC2)c2ccccc12 97.9%
Cc1ccc(OCCCC(=O)Nc2sc3c(c2C(N)=O)CCC(C)C3)c(C)c1 (configuration not stated) 85.7%
CCc1ccc(S(=O)(=O)c2nnn3c2nc(N2CCC(C(N)=O)CC2)c2cc(Cl)ccc23)cc1 100%
CC(=O)c1cccc(Nc2nc(Nc3ccc(F)c(Cl)c3)nc(N3CCOCC3)n2)c1 15.9%
CC(=O)c1ccc(NC(=O)c2sc3nc(C)cc(C)c3c2N)cc1 131%
Cc1cc(Cl)cc2sc(N(Cc3cccnc3)C(=O)CN3C(=O)CCC3=O)nc12 48.6%
CCCC(=O)Nc1ccc(NC(=O)c2ccncc2)cn1 93.5%
COc1ccc(NC(=O)c2cnc(SCC(=O)NCc3ccc4c(c3)OCO4)n(C)c2=O)cc1 27.2%
C=CCc1cccc2cc(C(=O)Nc3cc(C)ccc3C)c(=O)oc12 94.5%
O=c1[nH]c2cc3ccccc3c(=O)n2c2sc3c(c12)CCCC3 131%
CC(=O)NCCNc1nc2c(c(=O)n(C)c(=O)n2C)n1CC(=O)Nc1ccccc1C 110%
COCCNC(=O)C1c2ccccc2C(=O)N1Cc1ccc(F)cc1 (configuration not stated) 107%
CC(Cc1cccs1)NC(=O)c1cnn(-c2ccc(F)cc2)c1 (configuration not stated) 60.6%
O=C(Nc1nc2c(s1)COc1ccccc1-2)C1COc2ccccc2O1 (configuration not stated) 93.6%
O=C(/C=C\c1ccc([N+](=O)[O-])cc1)NC1CC(=O)N(c2ccccc2)C1 (configuration not stated) 71.8%
O=C(CN1C(=O)/C(=C2\NC(=S)NC2=O)c2ccccc21)Nc1cccc(Cl)c1 92.9%
COc1cccc(Cn2c(C3CC3)nc3ccc(NC(=O)c4ccncc4)cc3c2=O)c1 93.4%
O=C(CC1CCN(C(=O)c2cc3ccccc3[nH]2)CC1)NCc1ccc2c(c1)OCO2 64%
CCc1ccc2c(c1)[C@H]1OCC[C@H]1C(c1ccc(C(=O)O)cc1)N2 (some centres not stated) 115%
COc1ccc(Cl)cc1Nc1ncnc2c1c(C)c(C)n2-c1ccccc1 97.3%
NC(=O)Cn1c2ccc([N+](=O)[O-])cc2c2cc([N+](=O)[O-])ccc21 118%
COc1cc(OC)c(NC(=O)N2CCC(n3cnc4cccnc43)CC2)cc1Cl 84.4%
CC(=O)N1CCN(C2=NC(=O)/C(=C\c3cccc([N+](=O)[O-])c3)S2)CC1 85.2%
O=S(=O)(Nc1cccc(-c2ccc(N3CCCC3)nn2)c1)c1cccnc1 124%
CCCCN(C)c1cc(C(=O)O)c2cc(NC(=O)c3cccc(C)c3)ccc2n1 144%
O=C(NCc1nnnn1-c1ccc(Cl)cc1)c1ccc(-c2ccccc2)cc1 72%
CS(=O)(=O)c1ccc(CC(=O)Nc2ncc(S(=O)(=O)c3ccc([N+](=O)[O-])cc3)s2)cc1 66.5%
C=CCn1c(Sc2nc(C)cs2)nc2c1c(=O)[nH]c(=O)n2C 96.7%
O=C(NCCS(=O)(=O)N1CCCCC1)c1ccccc1 94.7%
Cc1ccc(C(=O)Nc2c(C#N)[nH]c3sc4c(c23)CCCC4)cc1 98.5%
CC(Sc1nnc2c(n1)[nH]c1ccccc12)C(=O)NC(c1ccccc1)c1ccccc1 (configuration not stated) 83%
N#Cc1c(NC(=O)CS(=O)(=O)c2ccccc2)sc2c1CCCCC2 118%
O=C(CSc1ncccn1)Nc1ccc(C(=O)N2CCOCC2)cc1 111%
Cc1ccc2cc(C#N)c(NCCCNC(=O)NC3CCCCC3)nc2c1 63.9%
N#Cc1c(NC(=O)CSc2nnc3c(n2)-c2cccc4cccc-3c24)sc2c1CCCC2 48.1%
O=C(CCc1nnc2n(Cc3ccc(Cl)cc3)c(=O)c3ccccc3n12)NCc1cccnc1 95.7%
CCOc1ccc(-n2c(-c3ccccc3)cn3c4c(=O)n(CC(N)=O)c(=O)n(C)c4nc23)cc1 112%

3 entries drawn at random from those above, as already listed:
Intracellular bacterial bioluminescence, inactive:
Cc1ccc2cc(C#N)c(NCCCNC(=O)NC3CCCCC3)nc2c1 63.9%
Cc1ccc(C(=O)Nc2c(C#N)[nH]c3sc4c(c23)CCCC4)cc1 98.5%
O=C(CCn1c(-c2ccncc2)cc2cccnc21)Nc1ccccc1F 71.2%
